The values below come from paper PMC7819943, “Rice protein-binding microarrays: a tool to detect cis-acting elements near promoter regions in rice”.

This is one part of the list.

In the test the target is T1, OsSMF1 (Oryza sativa, UniProt Q6ZLB0 1-436).
T1 sequence: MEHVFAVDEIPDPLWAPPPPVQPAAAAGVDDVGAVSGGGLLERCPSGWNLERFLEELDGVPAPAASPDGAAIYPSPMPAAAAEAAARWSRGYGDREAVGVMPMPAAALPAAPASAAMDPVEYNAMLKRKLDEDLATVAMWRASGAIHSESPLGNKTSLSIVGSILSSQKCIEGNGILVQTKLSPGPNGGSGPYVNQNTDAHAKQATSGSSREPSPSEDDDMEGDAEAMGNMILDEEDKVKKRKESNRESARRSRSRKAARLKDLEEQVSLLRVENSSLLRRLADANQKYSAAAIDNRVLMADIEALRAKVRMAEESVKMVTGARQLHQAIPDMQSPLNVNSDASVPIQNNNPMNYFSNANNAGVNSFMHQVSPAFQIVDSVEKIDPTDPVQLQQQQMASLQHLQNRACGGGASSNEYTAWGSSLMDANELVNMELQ
Nature of the test: protein-binding microarray (RPBM); PBS, 2% BSA, 51.3 ng/ul salmon testes DNA, 50 uM zinc acetate, 200 nM TF, 25 C, 1 h; high values mean tight binding. The note with it: protein: recombinant; tags: N-terminal polyhistidine and DsRed monomer fusion (pET32a); chain copies: 2; label: CyDye5-dUTP incorporated in the synthesized complementary strand; 3' TTTTT single-stranded linker to array surface; dsDNA, one strand shown. In outline:
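The binding signal for each feature is its fluorescence intensity in arbitrary units. An Axon 4000B scanner was used to read a custom Agilent array that had been made double-stranded with Cy5-dUTP primer extension, blocked with 2% BSA, incubated at 25 °C for 1 h with 200 nM protein in PBS, 2% BSA, salmon testes DNA and 50 µM zinc acetate, and washed. The protein was an N-terminal polyhistidine–DsRed transcription factor fusion from E. coli BL21-CodonPlus, purified on Ni–NTA.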
Take “TAAAGTTCAAAATCATGACTCGTGATTTAACATCAATGATCGGAGTCACCTAGTGCAG”: the binding signal was 3310 fluorescence intensity (a.u.).
The value for “CAACGTCACTCTACAGAGCTAACGCCGTCAGCACATCCCACGGAGTCACCTAGTGCAG” was 5910 fluorescence intensity (a.u.); that for “CGCGGCGCGCACACGCCATGCCGGCATGCCGTGGCATACCCGGAGTCACCTAGTGCAG” was 3990 fluorescence intensity (a.u.); that for “GATGAGTCGCCGAATACCTCCCGGAGCGCCGCCGCCCGCCCGGAGTCACCTAGTGCAG” was 21700 fluorescence intensity (a.u.).
The same measure for “TGTGGGGCCCACGTGGGTCCAACGCTGACTCAGCAGCTACCGGAGTCACCTAGTGCAG”: 29300 fluorescence intensity (a.u.).
Take “AAATATTTCCACAAACACACCATGCATGATATATGTTTTACGGAGTCACCTAGTGCAG”: the binding signal was 15200 fluorescence intensity (a.u.).
Take “CTCAAATCAACAGCATTTGAACCCGGCGTGTGCGACGTGTCGGAGTCACCTAGTGCAG”: the binding signal is 3510 fluorescence intensity (a.u.).
In the case of “CTTCAGGCCTCACTGCGTCGTACGTGTCGGCTCCAACTCCCGGAGTCACCTAGTGCAG”, the binding signal is 8940 fluorescence intensity (a.u.).
The same measure for “CCTGGGCGTCAACGAGCACGTGTCGCTGGGGCAGCTGCGCCGGAGTCACCTAGTGCAG”: 4920 fluorescence intensity (a.u.).
As to “CAACCACGAAACCTCACCGACATGTGGGACCCATGTGGCACGGAGTCACCTAGTGCAG”, the binding signal was 4930 fluorescence intensity (a.u.).
Regarding “AACCAAAATCCACGCGTACTCCTCTCGCAACAACTACCTCCGGAGTCACCTAGTGCAG”, the binding signal was 3170 fluorescence intensity (a.u.).
The value for “AATAGAATGGAAACAAGGTATTTAAAATGAATTTTGAGAACGGAGTCACCTAGTGCAG” was 33600 fluorescence intensity (a.u.).
In the case of “CAGACTTCAGAACTTGATTGATTATAACTTAGTACTTCATCGGAGTCACCTAGTGCAG”, the binding signal is 23400 fluorescence intensity (a.u.).
The value for “GGAGAAAGGAACGGAGGGTGCGTACAACAGTCGGTACTTGCGGAGTCACCTAGTGCAG” was 3290 fluorescence intensity (a.u.); that for “CTGATCCTGTGATGTTGGCAACTCCACGTCGACAAAAGCACGGAGTCACCTAGTGCAG” was 10300 fluorescence intensity (a.u.).
Take “GTACTAGAATATCGAATTTAGATATAGAGGATGTGTCACACGGAGTCACCTAGTGCAG”: the binding signal is 3270 fluorescence intensity (a.u.).
Take “CTGACAAAGAGGGCCCACATGCAGCGTCACAACCCGGAGCCGGAGTCACCTAGTGCAG”: the binding signal was 5030 fluorescence intensity (a.u.).
The value for “CTGATCTGACGATGGGTGACACGACTTGGGCTTAAACAATCGGAGTCACCTAGTGCAG” was 3880 fluorescence intensity (a.u.); that for “TCGATAAATGTATAGGTGGACATGTAAAACGTTACCACTGCGGAGTCACCTAGTGCAG” was 3340 fluorescence intensity (a.u.).
The value for “GAATAGCAGCAACGGCTAGTAGTACTCGTTACTGTGTTTACGGAGTCACCTAGTGCAG” was 18900 fluorescence intensity (a.u.); that for “ATATATATATATATATATATATATATATATACACACACACCGGAGTCACCTAGTGCAG” was 15200 fluorescence intensity (a.u.); that for “TGACTCTTATACTTATCAGCCGAAATTTAAAATTTCATTGCGGAGTCACCTAGTGCAG” was 3730 fluorescence intensity (a.u.).
The value for “ATGTCAGGATGCCACGTCACACCCTTTCTTTCCCCTCCTCCGGAGTCACCTAGTGCAG” was 45200 fluorescence intensity (a.u.).
